Laboratory results as given in publication PMC5675994.

Sequences of proteins named here, by UniProt entry; tags and fusion partners are left off. A change or cut given only in a name is not applied to a line headed by its entry.
UniProt P43609: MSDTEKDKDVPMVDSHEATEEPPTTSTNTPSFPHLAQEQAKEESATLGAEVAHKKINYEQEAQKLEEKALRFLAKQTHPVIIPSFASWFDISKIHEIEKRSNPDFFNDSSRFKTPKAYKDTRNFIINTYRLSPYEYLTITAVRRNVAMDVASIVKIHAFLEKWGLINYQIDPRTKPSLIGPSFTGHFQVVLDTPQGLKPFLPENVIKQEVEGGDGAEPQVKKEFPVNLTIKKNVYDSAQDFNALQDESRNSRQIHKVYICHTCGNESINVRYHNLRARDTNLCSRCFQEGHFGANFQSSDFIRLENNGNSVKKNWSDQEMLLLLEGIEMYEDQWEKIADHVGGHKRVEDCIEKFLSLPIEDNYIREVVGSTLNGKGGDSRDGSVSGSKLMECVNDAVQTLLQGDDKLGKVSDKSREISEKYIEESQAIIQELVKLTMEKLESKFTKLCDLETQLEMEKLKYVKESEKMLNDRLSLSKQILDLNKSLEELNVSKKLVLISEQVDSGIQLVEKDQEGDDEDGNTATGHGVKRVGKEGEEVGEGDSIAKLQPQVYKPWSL
UniProt Q07540: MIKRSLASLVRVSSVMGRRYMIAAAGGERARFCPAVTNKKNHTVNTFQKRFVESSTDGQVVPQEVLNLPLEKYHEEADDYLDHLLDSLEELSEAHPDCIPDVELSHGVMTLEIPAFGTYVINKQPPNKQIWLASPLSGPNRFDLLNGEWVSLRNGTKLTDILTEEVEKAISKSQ
UniProt P25632: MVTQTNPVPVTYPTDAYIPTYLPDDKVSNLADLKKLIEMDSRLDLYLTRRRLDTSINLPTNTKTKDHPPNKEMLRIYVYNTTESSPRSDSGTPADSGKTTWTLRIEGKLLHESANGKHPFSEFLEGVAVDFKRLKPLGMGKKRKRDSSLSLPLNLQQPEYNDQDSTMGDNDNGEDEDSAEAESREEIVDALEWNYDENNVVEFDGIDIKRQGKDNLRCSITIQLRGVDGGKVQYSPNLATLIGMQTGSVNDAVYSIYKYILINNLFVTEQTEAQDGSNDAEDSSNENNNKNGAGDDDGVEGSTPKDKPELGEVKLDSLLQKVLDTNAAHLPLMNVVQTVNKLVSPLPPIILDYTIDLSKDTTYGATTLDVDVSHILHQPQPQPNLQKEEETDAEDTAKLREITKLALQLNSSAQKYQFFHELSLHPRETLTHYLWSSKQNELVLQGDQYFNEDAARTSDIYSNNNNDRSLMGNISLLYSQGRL
UniProt P11484: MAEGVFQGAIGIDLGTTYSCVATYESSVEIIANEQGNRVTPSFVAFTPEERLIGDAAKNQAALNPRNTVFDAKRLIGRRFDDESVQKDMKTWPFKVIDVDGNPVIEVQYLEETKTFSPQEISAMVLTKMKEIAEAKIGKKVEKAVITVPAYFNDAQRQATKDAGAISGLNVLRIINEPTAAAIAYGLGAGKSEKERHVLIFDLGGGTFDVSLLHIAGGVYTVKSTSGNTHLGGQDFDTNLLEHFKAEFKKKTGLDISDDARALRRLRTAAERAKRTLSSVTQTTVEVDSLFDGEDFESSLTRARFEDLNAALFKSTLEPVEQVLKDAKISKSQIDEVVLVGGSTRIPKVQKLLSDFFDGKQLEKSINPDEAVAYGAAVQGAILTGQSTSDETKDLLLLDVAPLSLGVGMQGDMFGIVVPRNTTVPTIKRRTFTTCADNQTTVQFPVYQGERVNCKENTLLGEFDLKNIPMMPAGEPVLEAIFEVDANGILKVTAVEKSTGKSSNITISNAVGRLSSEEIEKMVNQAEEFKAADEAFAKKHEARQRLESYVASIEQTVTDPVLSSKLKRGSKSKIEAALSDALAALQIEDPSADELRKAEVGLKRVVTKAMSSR
UniProt P32597: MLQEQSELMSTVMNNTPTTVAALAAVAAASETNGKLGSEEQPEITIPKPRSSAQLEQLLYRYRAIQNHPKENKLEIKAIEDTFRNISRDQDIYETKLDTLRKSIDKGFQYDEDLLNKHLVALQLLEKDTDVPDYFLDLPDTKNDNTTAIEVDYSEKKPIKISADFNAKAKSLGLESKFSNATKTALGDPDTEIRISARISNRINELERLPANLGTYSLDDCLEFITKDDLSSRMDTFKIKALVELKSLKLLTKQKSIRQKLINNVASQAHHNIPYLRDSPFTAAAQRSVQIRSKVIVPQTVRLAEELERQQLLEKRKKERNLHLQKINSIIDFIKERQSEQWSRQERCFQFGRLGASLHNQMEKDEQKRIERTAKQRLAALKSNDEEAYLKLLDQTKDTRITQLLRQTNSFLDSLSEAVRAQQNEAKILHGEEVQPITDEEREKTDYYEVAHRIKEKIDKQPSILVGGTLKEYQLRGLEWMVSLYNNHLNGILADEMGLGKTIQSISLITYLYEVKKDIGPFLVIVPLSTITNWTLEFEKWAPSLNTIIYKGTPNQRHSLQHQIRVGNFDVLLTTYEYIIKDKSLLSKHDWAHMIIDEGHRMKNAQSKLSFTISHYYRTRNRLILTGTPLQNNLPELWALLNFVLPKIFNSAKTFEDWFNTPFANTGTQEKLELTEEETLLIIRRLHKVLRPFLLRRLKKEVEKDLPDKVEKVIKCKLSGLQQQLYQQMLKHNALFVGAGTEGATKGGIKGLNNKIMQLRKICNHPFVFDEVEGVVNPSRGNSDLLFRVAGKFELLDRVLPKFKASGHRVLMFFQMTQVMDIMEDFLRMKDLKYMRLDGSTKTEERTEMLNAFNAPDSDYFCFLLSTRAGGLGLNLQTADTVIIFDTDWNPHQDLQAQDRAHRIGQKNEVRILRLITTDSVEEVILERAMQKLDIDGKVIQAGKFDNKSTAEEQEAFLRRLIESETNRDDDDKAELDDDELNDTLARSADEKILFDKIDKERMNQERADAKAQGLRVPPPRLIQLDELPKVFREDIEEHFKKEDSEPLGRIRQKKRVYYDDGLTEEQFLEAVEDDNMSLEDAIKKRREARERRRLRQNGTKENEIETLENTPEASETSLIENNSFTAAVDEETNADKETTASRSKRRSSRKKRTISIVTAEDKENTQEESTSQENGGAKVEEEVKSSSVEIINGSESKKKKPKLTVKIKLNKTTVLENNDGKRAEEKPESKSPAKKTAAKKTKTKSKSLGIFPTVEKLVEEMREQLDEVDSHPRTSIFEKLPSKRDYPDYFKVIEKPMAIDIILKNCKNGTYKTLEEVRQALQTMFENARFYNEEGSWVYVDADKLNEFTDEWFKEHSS

T1: Nfs1-His6 (S. cerevisiae) (UniProt P25374)
T1 sequence: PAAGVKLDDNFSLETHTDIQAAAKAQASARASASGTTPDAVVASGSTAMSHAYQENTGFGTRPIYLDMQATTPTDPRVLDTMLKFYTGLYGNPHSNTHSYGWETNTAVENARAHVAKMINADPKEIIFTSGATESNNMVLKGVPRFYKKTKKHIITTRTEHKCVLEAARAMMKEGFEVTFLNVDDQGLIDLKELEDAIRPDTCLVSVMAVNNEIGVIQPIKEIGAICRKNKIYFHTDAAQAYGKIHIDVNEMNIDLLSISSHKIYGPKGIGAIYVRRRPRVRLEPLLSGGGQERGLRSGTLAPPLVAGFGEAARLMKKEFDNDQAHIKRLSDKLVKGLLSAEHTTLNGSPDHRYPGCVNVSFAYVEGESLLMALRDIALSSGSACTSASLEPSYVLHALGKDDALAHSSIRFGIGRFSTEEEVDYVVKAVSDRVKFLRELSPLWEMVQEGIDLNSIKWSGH


Biological target: T1, Nfs1-His6 (S. cerevisiae)
Assay: affinity purification with mass spectrometry; Nfs1-His6 held on Ni-NTA superflow agarose from sonicated, cleared lysate of isolated mitochondria of the Gal-Nfs1-His6 yeast strain; 50 mM TrisCl pH 7.5, 80 mM KCl, 10% glycerol, wash 40 mM imidazole, elution 400 mM imidazole; eluate analysed by LC-MS/MS

Molecule	binding
Chromatin structure-remodeling complex protein RSC8 (from UniProt P43609 1-557)	binds
Threonine dehydratase, mitochondrial (S. cerevisiae)	binds
Frataxin homolog, mitochondrial;Frataxin homolog intermediate form (from UniProt Q07540)	binds
D-lactate dehydrogenase [cytochrome] 1, mitochondrial (S. cerevisiae)	binds
Transposon Ty1-NL2 Gag-Pol polyprotein;Capsid protein (S. cerevisiae)	binds
NAD-dependent malic enzyme, mitochondrial (S. cerevisiae)	binds
Chromatin structure-remodeling complex protein RSC6 (from UniProt P25632 1-483)	binds
Glycerol-3-phosphate dehydrogenase [NAD(+)] 2, mitochondrial (protein, UniProt P41911 17-440) HPVLYTRRAYKILPSRSTFLRRSLLQTQLHSKMTAHTNIKQHKHCHEDHPIRRSDSAVSIVHLKRAPFKVTVIGSGNWGTTIAKVIAENTELHSHIFEPEVRMWVFDEKIGDENLTDIINTRHQNVKYLPNIDLPHNLVADPDLLHSIKGADILVFNIPHQFLPNIVKQLQGHVAPHVRAISCLKGFELGSKGVQLLSSYVTDELGIQCGALSGANLAPEVAKEHWSETTVAYQLPKDYQGDGKDVDHKILKLLFHRPYFHVNVIDDVAGISIAGALKNVVALACGFVEGMGWGNNASAAIQRLGLGEIIKFGRMFFPESKVETYYQESAGVADLITTCSGGRNVKVATYMAKTGKSALEAEKELLNGQSAQGIITCREVHEWLQTCELTQEFPLFEAVYQIVYNNVRMEDLPEMIEELDIDDE	binds
Alcohol dehydrogenase 2 (protein, UniProt P00331 1-348) MSIPETQKAIIFYESNGKLEHKDIPVPKPKPNELLINVKYSGVCHTDLHAWHGDWPLPTKLPLVGGHEGAGVVVGMGENVKGWKIGDYAGIKWLNGSCMACEYCELGNESNCPHADLSGYTHDGSFQEYATADAVQAAHIPQGTDLAEVAPILCAGITVYKALKSANLRAGHWAAISGAAGGLGSLAVQYAKAMGYRVLGIDGGPGKEELFTSLGGEVFIDFTKEKDIVSAVVKATNGGAHGIINVSVSEAAIEASTRYCRANGTVVLVGLPAGAKCSSDVFNHVVKSISIVGSYVGNRADTREALDFFARGLVKSPIKVVGLSSLPEIYEKMEKGQIAGRYVVDTSK	binds
Long-chain-fatty-acid--CoA ligase 1 (protein, UniProt P30624 1-700) MVAQYTVPVGKAANEHETAPRRNYQCREKPLVRPPNTKCSTVYEFVLECFQKNKNSNAMGWRDVKEIHEESKSVMKKVDGKETSVEKKWMYYELSHYHYNSFDQLTDIMHEIGRGLVKIGLKPNDDDKLHLYAATSHKWMKMFLGAQSQGIPVVTAYDTLGEKGLIHSLVQTGSKAIFTDNSLLPSLIKPVQAAQDVKYIIHFDSISSEDRRQSGKIYQSAHDAINRIKEVRPDIKTFSFDDILKLGKESCNEIDVHPPGKDDLCCIMYTSGSTGEPKGVVLKHSNVVAGVGGASLNVLKFVGNTDRVICFLPLAHIFELVFELLSFYWGACIGYATVKTLTSSSVRNCQGDLQEFKPTIMVGVAAVWETVRKGILNQIDNLPFLTKKIFWTAYNTKLNMQRLHIPGGGALGNLVFKKIRTATGGQLRYLLNGGSPISRDAQEFITNLICPMLIGYGLTETCASTTILDPANFELGVAGDLTGCVTVKLVDVEELGYFAKNNQGEVWITGANVTPEYYKNEEETSQALTSDGWFKTGDIGEWEANGHLKIIDRKKNLVKTMNGEYIALEKLESVYRSNEYVANICVYADQSKTKPVGIIVPNHAPLTKLAKKLGIMEQKDSSINIENYLEDAKLIKAVYSDLLKTGKDQGLVGIELLAGIVFFDGEWTPQNGFVTSAQKLKRKDILNAVKDKVDAVYSSS	binds
Elongation factor 3A (protein, UniProt P16521 1-1044) MSDSQQSIKVLEELFQKLSVATADNRHEIASEVASFLNGNIIEHDVPEHFFGELAKGIKDKKTAANAMQAVAHIANQSNLSPSVEPYIVQLVPAICTNAGNKDKEIQSVASETLISIVNAVNPVAIKALLPHLTNAIVETNKWQEKIAILAAISAMVDAAKDQVALRMPELIPVLSETMWDTKKEVKAAATAAMTKATETVDNKDIERFIPSLIQCIADPTEVPETVHLLGATTFVAEVTPATLSIMVPLLSRGLNERETGIKRKSAVIIDNMCKLVEDPQVIAPFLGKLLPGLKSNFATIADPEAREVTLRALKTLRRVGNVGEDDAIPEVSHAGDVSTTLQVVNELLKDETVAPRFKIVVEYIAAIGADLIDERIIDQQAWFTHITPYMTIFLHEKKAKDILDEFRKRAVDNIPVGPNFDDEEDEGEDLCNCEFSLAYGAKILLNKTQLRLKRARRYGICGPNGCGKSTLMRAIANGQVDGFPTQEECRTVYVEHDIDGTHSDTSVLDFVFESGVGTKEAIKDKLIEFGFTDEMIAMPISALSGGWKMKLALARAVLRNADILLLDEPTNHLDTVNVAWLVNYLNTCGITSITISHDSVFLDNVCEYIINYEGLKLRKYKGNFTEFVKKCPAAKAYEELSNTDLEFKFPEPGYLEGVKTKQKAIVKVTNMEFQYPGTSKPQITDINFQCSLSSRIAVIGPNGAGKSTLINVLTGELLPTSGEVYTHENCRIAYIKQHAFAHIESHLDKTPSEYIQWRFQTGEDRETMDRANRQINENDAEAMNKIFKIEGTPRRIAGIHSRRKFKNTYEYECSFLLGENIGMKSERWVPMMSVDNAWIPRGELVESHSKMVAEVDMKEALASGQFRPLTRKEIEEHCSMLGLDPEIVSHSRIRGLSGGQKVKLVLAAGTWQRPHLIVLDEPTNYLDRDSLGALSKALKEFEGGVIIITHSAEFTKNLTEEVWAVKDGRMTPSGHNWVSGQGAGPRIEKKEDEEDKFDAMGNKIAGGKKKKKLSSAELRKKKKERMKKKKELGDAYVSSDEEF	binds

Second part, the molecule after the results:

binding	Molecule
binds	Heat shock protein SSB1 (from UniProt P11484 1-613)
binds	Nuclear protein STH1/NPS1 (from UniProt P32597 1-1359)
binds	Protein RMD9-like, mitochondrial (S. cerevisiae)
binds	ATP-dependent RNA helicase MSS116, mitochondrial (protein, UniProt P15424 27-664) NHITWAVSRRLYNDGNRDQRNFGRNQRNNNSNRYRNSRFNSRPRTRSREDDDEVHFDKTTFSKLIHVPKEDNSKEVTLDSLLEEGVLDKEIHKAITRMEFPGLTPVQQKTIKPILSSEDHDVIARAKTGTGKTFAFLIPIFQHLINTKFDSQYMVKAVIVAPTRDLALQIEAEVKKIHDMNYGLKKYACVSLVGGTDFRAAMNKMNKLRPNIVIATPGRLIDVLEKYSNKFFRFVDYKVLDEADRLLEIGFRDDLETISGILNEKNSKSADNIKTLLFSATLDDKVQKLANNIMNKKECLFLDTVDKNEPEAHERIDQSVVISEKFANSIFAAVEHIKKQIKERDSNYKAIIFAPTVKFTSFLCSILKNEFKKDLPILEFHGKITQNKRTSLVKRFKKDESGILVCTDVGARGMDFPNVHEVLQIGVPSELANYIHRIGRTARSGKEGSSVLFICKDELPFVRELEDAKNIVIAKQEKYEPSEEIKSEVLEAVTEEPEDISDIVISLISSYRSCIKEYRFSERRILPEIASTYGVLLNDPQLKIPVSRRFLDKLGLSRSPIGKAMFEIRDYSSRDGNNKSYDYDDDSEISFRGNKNYNNRSQNRDYDDEPFRRSNNNRRSFSRSNDKNNYSSRNSNIY
binds	External NADH-ubiquinone oxidoreductase 1, mitochondrial (protein, UniProt P40215 42-560) EDKKVILQKVAPTTGVVAKQSFFKRTGKFTLKALLYSALAGTAYVSYSLYREANPSTQVPQSDTFPNGSKRKTLVILGSGWGSVSLLKNLDTTLYNVVVVSPRNYFLFTPLLPSTPVGTIELKSIVEPVRTIARRSHGEVHYYEAEAYDVDPENKTIKVKSSAKNNDYDLDLKYDYLVVGVGAQPNTFGTPGVYEYSSFLKEISDAQEIRLKIMSSIEKAASLSPKDPERARLLSFVVVGGGPTGVEFAAELRDYVDQDLRKWMPELSKEIKVTLVEALPNILNMFDKYLVDYAQDLFKEEKIDLRLKTMVKKVDATTITAKTGDGDIENIPYGVLVWATGNAPREVSKNLMTKLEEQDSRRGLLIDNKLQLLGAKGSIFAIGDCTFHPGLFPTAQVAHQEGEYLAQYFKKAYKIDQLNWKMTHAKDDSEVARLKNQIVKTQSQIEDFKYNHKGALAYIGSDKAIADLAVGEAKYRLAGSFTFLFWKSAYLAMCLSFRNRVLVAMDWAKVYFLGRDSSI
binds	Phosphatidylethanolamine N-methyltransferase (protein, UniProt P05374 1-869) MSSCKTTLSEMVGSVTKDRGTINVEARTRSSNVTFKPPVTHDMVRSLFDPTLKKSLLEKCIALAIISNFFICYWVFQRFGLQFTKYFFLVQYLFWRIAYNLGIGLVLHYQSHYETLTNCAKTHAIFSKIPQNKDANSNFSTNSNSFSEKFWNFIRKFCQYEIRSKMPKEYDLFAYPEEINVWLIFRQFVDLILMQDFVTYIIYVYLSIPYSWVQIFNWRSLLGVILILFNIWVKLDAHRVVKDYAWYWGDFFFLEESELIFDGVFNISPHPMYSIGYLGYYGLSLICNDYKVLLVSVFGHYSQFLFLKYVENPHIERTYGDGTDSDSQMNSRIDDLISKENYDYSRPLINMGLSFNNFNKLRFTDYFTIGTVAALMLGTIMNARFINLNYLFITVFVTKLVSWLFISTILYKQSQSKWFTRLFLENGYTQVYSYEQWQFIYNYYLVLTYTLMIIHTGLQIWSNFSNINNSQLIFGLILVALQTWCDKETRLAISDFGWFYGDFFLSNYISTRKLTSQGIYRYLNHPEAVLGVVGVWGTVLMTNFAVTNIILAVLWTLTNFILVKFIETPHVNKIYGKTKRVSGVGKTLLGLKPLRQVSDIVNRIENIIIKSLVDESKNSNGGAELLPKNYQDNKEWNILIQEAMDSVATRLSPYCELKIENEQVETNFVLPTPVTLNWKMPIELYNGDDWIGLYKVIDTRADREKTRVGSGGHWSATSKDSYMNHGLRHKESVTEIKATEKYVQGKVTFDTSLLYFENGIYEFRYHSGNSHKVLLISTPFEISLPVLNTTTPELFEKDLTEFLTKVNVLKDGKFRPLGNKFFGMDSLKQLIKNSIGVELSSEYMRRVNGDAHVISHRAWDIKQTLDSLA

These are yes or no findings as the source states them, for the method shown. Binding seen in cells or lysates may run through a third protein. A yes stands for co-enrichment or nearness to the bait. Other partners may have been found. Where a sequence is shown, tags or fusion partners need not be part of it.
